Measurements reported in publication PMC10850148.
These are yes or no findings as the source states them, for the method shown. Binding calls can cover weak binding; strength is not graded here.

Assays:
[1] = biological target: T1, AtSPL13 ZnF domain (residues 98-162) (Arabidopsis thaliana) (UniProt B9DI20); test: crystal structure; sitting-drop vapor diffusion, 18 °C; complexes purified by gel filtration; both purified
T1 sequence: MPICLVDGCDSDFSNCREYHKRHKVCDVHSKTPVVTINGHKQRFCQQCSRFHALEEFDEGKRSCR

[2] = biological target: T2, AtSPL5 ZnF domain (residues 60-124) (Arabidopsis thaliana) (UniProt Q9S758); test: as above
T2 sequence: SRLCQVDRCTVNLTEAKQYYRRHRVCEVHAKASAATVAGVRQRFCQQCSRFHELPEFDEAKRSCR

[3] = biological target: T2, AtSPL5 ZnF domain (residues 60-124) (Arabidopsis thaliana); test: SEC; Superdex 75 Increase 10/300, 20 mM Tris-HCl pH 7.5, 150 mM NaCl, 1 mM DTT; peak fractions on SDS-PAGE; both purified
[4] = biological target: GST-tagged OY-M SAP05 (onion yellows phytoplasma (OY-M; Candidatus Phytoplasma asteris)); test: pull-down; about 200 μg purified GST-fused protein on GST beads, equal amount of target protein, 1 h, 4 °C; 20 mM Tris-HCl, 400 mM NaCl; glutathione elution, Coomassie staining; both purified

OY-M SAP05 (residues 33-135) (domain or fragment)
binding [1]: binds | binding [2]: binds | binding [3]: binds

B1: AtSPL5 ZnF domain (residues 60-124) (domain or fragment, UniProt Q9S758 60-124)
chain: T2 sequence
binding [4]: binds
